Results are given in words; binding and its absence hold for the method and conditions named. In cells and extracts the contact can be indirect. Some binding calls cover weakened binding; strength is not graded here.
How the values were obtained:
[1] = target: HDAC9, in vitro translated 35S-labeled (UniProt Q9UKV0); experiment: GST pull-down of USF-1 domains with in vitro translated 35S-labeled protein
[2] = target: P/CAF, in vitro translated 35S-labeled (UniProt Q92831); experiment: as above

Sequences of proteins named here, by UniProt entry; tags and fusion partners are left off. Residues count along the entry.
UniProt Q9UKV0: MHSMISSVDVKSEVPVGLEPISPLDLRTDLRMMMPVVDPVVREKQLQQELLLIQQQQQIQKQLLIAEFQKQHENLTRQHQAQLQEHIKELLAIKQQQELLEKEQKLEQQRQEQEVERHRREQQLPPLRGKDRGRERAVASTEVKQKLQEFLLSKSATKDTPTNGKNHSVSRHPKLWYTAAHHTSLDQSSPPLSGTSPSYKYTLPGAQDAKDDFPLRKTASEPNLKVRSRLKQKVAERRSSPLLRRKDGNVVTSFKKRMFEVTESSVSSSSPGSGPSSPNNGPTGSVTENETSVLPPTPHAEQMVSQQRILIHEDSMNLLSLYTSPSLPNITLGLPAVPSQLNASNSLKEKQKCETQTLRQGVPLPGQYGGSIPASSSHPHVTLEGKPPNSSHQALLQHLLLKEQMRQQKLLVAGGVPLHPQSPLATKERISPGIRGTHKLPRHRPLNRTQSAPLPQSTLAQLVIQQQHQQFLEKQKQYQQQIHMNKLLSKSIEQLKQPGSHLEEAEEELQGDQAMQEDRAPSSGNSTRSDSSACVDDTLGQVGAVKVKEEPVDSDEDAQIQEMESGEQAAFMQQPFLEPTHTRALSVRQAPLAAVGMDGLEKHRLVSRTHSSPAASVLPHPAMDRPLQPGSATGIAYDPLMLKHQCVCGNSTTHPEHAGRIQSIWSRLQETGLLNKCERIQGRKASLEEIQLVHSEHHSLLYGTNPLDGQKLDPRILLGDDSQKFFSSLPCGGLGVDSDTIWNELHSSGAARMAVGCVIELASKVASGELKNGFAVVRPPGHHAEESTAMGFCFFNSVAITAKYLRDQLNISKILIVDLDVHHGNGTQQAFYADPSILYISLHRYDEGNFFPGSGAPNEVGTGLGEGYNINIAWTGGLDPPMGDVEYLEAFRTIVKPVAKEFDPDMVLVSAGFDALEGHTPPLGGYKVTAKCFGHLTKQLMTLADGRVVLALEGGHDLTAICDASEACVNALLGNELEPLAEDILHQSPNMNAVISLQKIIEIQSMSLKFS
UniProt Q92831: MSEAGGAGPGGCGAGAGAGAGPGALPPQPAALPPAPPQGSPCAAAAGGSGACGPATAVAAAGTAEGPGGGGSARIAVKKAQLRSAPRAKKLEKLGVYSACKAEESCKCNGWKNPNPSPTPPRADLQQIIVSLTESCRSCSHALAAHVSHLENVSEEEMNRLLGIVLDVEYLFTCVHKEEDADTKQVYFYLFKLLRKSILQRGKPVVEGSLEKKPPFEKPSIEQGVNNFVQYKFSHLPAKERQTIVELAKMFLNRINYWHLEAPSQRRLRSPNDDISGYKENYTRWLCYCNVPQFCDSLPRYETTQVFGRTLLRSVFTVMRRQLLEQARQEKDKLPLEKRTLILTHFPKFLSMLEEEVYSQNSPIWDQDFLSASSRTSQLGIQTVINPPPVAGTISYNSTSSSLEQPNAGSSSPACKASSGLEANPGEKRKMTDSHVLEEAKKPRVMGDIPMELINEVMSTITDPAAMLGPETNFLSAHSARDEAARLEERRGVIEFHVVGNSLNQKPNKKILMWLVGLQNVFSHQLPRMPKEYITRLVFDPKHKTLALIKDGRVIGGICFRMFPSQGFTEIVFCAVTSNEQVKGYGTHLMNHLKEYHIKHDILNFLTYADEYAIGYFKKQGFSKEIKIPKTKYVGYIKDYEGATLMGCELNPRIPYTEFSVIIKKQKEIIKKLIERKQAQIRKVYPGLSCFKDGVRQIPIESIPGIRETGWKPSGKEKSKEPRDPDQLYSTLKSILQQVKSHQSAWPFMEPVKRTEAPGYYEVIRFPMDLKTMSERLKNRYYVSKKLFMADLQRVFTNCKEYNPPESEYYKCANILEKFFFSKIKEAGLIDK
bHLH domain of USF-1 (P22415, residues 199-254): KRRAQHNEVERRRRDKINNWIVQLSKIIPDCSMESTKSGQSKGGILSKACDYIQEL
leucine zipper (LZ) domain of USF-1 (P22415, residues 261-310): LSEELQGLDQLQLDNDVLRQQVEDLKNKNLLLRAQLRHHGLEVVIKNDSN

Substance | binding [1] | binding [2]
leucine zipper (LZ) domain of USF-1 (from UniProt P22415 261-310) | binds | 
bHLH domain of USF-1 (from UniProt P22415 199-254) |  | binds

Source: patent publication US20110275699A1, “Treatment For Obesity And Diabetes” (University of California, priority 2010, published 2011)
